These are yes or no findings as the source states them, for the method shown. Binding seen in cells or lysates may run through a third protein. Some results given as binding are weak or reduced against the parent protein; the word gives no strength. Sequences can lack the tags named with a protein.
Assays:
[1] = biological target: T1, turnip crinkle virus coat protein with an HA epitope (turnip crinkle virus) (UniProt P06663); assay: co-IP; HA- and 3xMyc-tagged proteins transiently co-expressed in N. benthamiana leaves, 3 dpi; extract in 25 mM Tris HCl pH 7.4, 150 mM NaCl, 1 mM EDTA, 1% NP-40, 5% glycerol; Pierce anti-HA magnetic beads, 90 min at room temperature; blots with anti-HA and anti-c-Myc
T1 sequence: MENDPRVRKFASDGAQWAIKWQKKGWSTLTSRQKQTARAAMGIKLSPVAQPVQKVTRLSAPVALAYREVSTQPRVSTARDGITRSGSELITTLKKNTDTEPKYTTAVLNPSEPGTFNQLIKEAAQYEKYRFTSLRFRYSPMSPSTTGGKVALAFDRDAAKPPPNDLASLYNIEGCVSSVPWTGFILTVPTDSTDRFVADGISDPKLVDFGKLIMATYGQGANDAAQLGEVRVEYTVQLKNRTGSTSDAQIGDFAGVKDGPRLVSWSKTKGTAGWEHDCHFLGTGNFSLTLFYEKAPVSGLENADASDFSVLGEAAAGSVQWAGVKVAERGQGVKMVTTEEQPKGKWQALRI

Sequences of proteins named here, by UniProt entry; tags and fusion partners are left off.
UniProt Q40467: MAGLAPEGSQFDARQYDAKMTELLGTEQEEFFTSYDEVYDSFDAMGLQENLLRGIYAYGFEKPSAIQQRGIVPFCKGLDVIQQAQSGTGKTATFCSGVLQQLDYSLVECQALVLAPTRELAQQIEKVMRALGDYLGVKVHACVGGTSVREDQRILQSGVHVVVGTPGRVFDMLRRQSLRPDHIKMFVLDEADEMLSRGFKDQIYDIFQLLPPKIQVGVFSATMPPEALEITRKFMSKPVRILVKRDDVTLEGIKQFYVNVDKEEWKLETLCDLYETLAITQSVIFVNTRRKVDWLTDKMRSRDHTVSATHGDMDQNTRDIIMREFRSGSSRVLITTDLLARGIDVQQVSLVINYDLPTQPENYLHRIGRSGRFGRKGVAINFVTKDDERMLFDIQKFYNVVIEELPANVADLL

[2] = biological target: T2, CiLV-C p29 with a C-terminal HA epitope, transiently expressed (pMOG-p29:HA) (citrus leprosis virus C) (UniProt Q1KZ58); assay: as above
T2 sequence: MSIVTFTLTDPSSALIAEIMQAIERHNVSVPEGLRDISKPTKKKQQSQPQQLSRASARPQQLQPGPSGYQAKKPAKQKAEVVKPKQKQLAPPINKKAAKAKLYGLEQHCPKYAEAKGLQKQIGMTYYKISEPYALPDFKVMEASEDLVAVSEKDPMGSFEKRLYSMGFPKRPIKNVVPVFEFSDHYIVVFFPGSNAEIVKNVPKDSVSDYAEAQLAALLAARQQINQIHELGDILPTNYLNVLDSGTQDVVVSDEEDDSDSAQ

Substance	binding [1]	binding [2]
eIF4A with a 3xMyc tag at its N- or C-terminus (co-IP with TCV CP) (from UniProt Q40467 1-413)	binds	–
eIF4A with a C-terminal 3xMyc tag (from UniProt Q40467 1-413)	–	binds
